We go through one molecule from PMC7617106.

No constants are given. Whether binding was seen depends on the method and setting. Some results given as binding are weak or reduced against the parent protein; the word gives no strength.

The assay concerns the target T1, CBP-Csm3 (S. cerevisiae) (UniProt Q04659).
T1 sequence: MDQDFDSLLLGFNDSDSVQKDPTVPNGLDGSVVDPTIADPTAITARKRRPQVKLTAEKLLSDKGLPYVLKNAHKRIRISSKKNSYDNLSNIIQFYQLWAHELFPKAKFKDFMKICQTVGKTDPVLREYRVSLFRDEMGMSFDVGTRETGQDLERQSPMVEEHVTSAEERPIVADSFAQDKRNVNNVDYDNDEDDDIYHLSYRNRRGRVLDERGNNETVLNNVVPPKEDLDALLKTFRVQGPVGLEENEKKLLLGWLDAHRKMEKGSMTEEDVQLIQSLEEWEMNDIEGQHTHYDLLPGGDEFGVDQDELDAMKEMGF
Put plainly: co-purification; tof1 1-783 and CBP-Csm3 co-expressed in S. cerevisiae yRW9 and purified as a complex; strategy in Table S3.

B1: Tof1^1-783 (Tof1 with the flexible C terminus removed) (domain or fragment, UniProt P53840 1-783)
chain: MSADLQQGTTNAADFSLTVLRARIALLATAIGGPDYTSQIDPPPYKLGDDCLACLKDLKRWFKLVDDQQKRWDVAMAVAEYRILTDDLLPILIDWENKCSLAAKLAKNNPDHEEFRNKAYYDKIALNCLQLLVLMTWPLIVTEQSSSNQITLYGELKKHQLVYKKTILSMESGKVLRAAIRLALDVIKIDRLSRTPRDNMVLKLVLNFFRNVIAIEPGEFTINTKKSMPKKGITSIDTLPPNVSMDDISLNTVISSFHKNKVFGFLLTLTSSLSKEFDQDFINIPLLEIMFYFTKDVNQELLFPRQFETGTHSKVVNKNESSSANNIVTSAGFELSKLLQKEHQMRKNVIKHTSARHSRFGGLLSIQTPDKTRLTVSGSQALVDEKIALQKLDDSKKWNKRIIKKHQSVAAEGLPNSLLNSQTGKAIFFTESNGKHFKEFINNFIDSGFNILLHSVTNYFTTEQDRMVTLEQVEYLLFFAWFVKYQLLRSKIDNSADIKQVSEALKEVTFILVSSLLRSAYDLKNWTVTHAGMIAFNELLNLVSRTKAAQEEDSTDIEFIVSRLFSDERIQLLSNLPKIGSKYSLQFMKSCIELTHSVLKVLEQYSDDKTLVIEGKSRRQKKFNISEGDITKLIEEENVDRDEALDILTSSLRSIEVNFQKVQANYMTEPVIETYINFLERFRELEDDSIKKVFSFFHRVFVQAKEQALLFRFDLIILLREMLSPDGLDRMSRSRKYVSQFSDYFLARLKKRLKKSPAWFVGLLFPPLHNSEVGFYQRYGEYN
Take B1: the binding result is recorded as “binds”.
